Results as given in PubChem BioAssay AID540256 (National Center for Advancing Translational Sciences (NCATS), 2011).
Among all 300,000 compounds or so, about 3,700 (1.2%) were called active. Inconclusive means that the source gave no clear call. Such entries were picked first, then a sample of the others. The call rests on the fitted dose curve; tested in HEK293 cells. Potencies beside an inconclusive call are fits to weak or partial responses and may not hold up.

Assay: qHTS for Inhibitors of binding or entry into cells for Lassa Virus; further: nearly all actives have a fitted effect of over 50% in size
Conditions: Lassa virus pseudotype entry inhibition, cell reporter; series mostly up to 37.9 µM
Potency means the concentration at half of the fitted maximal effect.

Compound | Potency
N/C(=N\OC(=O)c1cccs1)C1(c2ccc(Cl)cc2Cl)CC1 | inconclusive: 0.501 µM [inhibitor, full curve, poor fit]
Cc1ccc(-c2nc(CS(=O)CC(=O)N3CCN(c4ccc(Cl)cc4)CC3)c(C)o2)cc1 (stereo not drawn) | inconclusive: 35.5 µM [inhibitor, single point]
COc1ccc(-c2noc(-c3nnn(-c4cc(C)ccc4C)c3N)n2)cc1 | inconclusive: 11.2 µM [activator, partial curve, poor fit]
NS(=O)(=O)c1ccc(N/C=C\C(=O)c2ccc(F)cc2)cc1 | inactive
COC(=O)C1=C(C)NC(=O)NC1C1CC=CCC1 (stereo not drawn) | inconclusive: 1.64 µM [inhibitor, partial curve, poor fit]
COc1ccc(/C=N/NC(=O)c2ccc(COc3ccccc3Cl)o2)c(OC)c1C | inconclusive: 0.708 µM [inhibitor, full curve, poor fit]
Cc1cccc(-c2nc(S(=O)(=O)c3ccc(F)cc3)c(NCCCN3CCOCC3)o2)c1 | inconclusive: 31.6 µM [inhibitor, single point]
NC(=O)CSc1ncc2c(n1)-c1ccccc1N(Cc1cccc(F)c1)S2(=O)=O | inactive
O=c1cc(C(O)C[N+](=O)[O-])occ1OCc1ccccc1 (stereo not drawn) | inconclusive: 5.62 µM [inhibitor, single point]
CC(C)Cc1ccc(C(C)NC(=O)Cc2ccc(S(=O)(=O)N3CCOCC3)s2)cc1 (stereo not drawn) | inconclusive: 35.5 µM [inhibitor, single point]
Cc1oc(C(=O)Nc2ccc(O)cc2)cc1COc1ccccc1 | active: 20 µM
C/C(=N\NC1=NCCN1)c1ccc(N)c([N+](=O)[O-])c1 | inconclusive: 1.41 µM [activator, partial curve]
COc1ccc(CCNC(=O)CN(c2cc(OC)ccc2OC)S(=O)(=O)c2ccccc2)cc1 | inconclusive: 4.61 µM [inhibitor, partial curve, poor fit]
Cc1nc(-c2ccc(NC(=O)CC(C)C)cc2)cs1 | inconclusive: 2.82 µM [activator, single point]
CCc1cc2ccc(C)cc2nc1SCC(=O)c1ccc(NC(C)=O)cc1 | inconclusive: 0.92 µM [inhibitor, partial curve, poor fit]
O=C(C(c1ccccc1)C(O)(c1ccccc1)c1ccccc1)N1CCOCC1 (stereo not drawn) | inactive
CCC(CC)C(=O)c1c[nH]c(C(=O)N2CCN(c3ccccc3)CC2)c1 | inconclusive: 10 µM [inhibitor, partial curve, poor fit]
Cc1cc(C)n(Cc2ccc(Cl)cc2Cl)c(=O)c1S(=O)(=O)c1ccccc1 | inconclusive: 0.891 µM [inhibitor, full curve, poor fit]

Fetched by structure from the list above:
Compound | Potency
CCc1cc2ccc(C)cc2nc1SCC(=O)c1ccc(NC(C)=O)cc1 | inconclusive: 0.92 µM [inhibitor, partial curve, poor fit]
COc1ccc(-c2noc(-c3nnn(-c4cc(C)ccc4C)c3N)n2)cc1 | inconclusive: 11.2 µM [activator, partial curve, poor fit]
